{"source": "the supplement of paper PMC4604168 (melanoma cell lines)", "note": "Some of the results follow. Single values are uncertain, as repeats are few or missing.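 Cells were imaged in 1,536-well plates, and nuclei stained with an antibody against cleaved PARP were counted against all DNA-stained nuclei to give the apoptosis fraction. Screening doses were chosen to leave most cells alive, and resting and induced cleaved-PARP levels differ strongly between cell lines.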", "data": [{"tested_on": "WM451Lu", "assay": "cleaved PARP positive nuclei fraction relative to DMSO control; melanoma cells; higher = more apoptosis", "settings": "library dose: low library concentration; 72 h", "units": {"cleaved PARP positive nuclei fraction": "%"}, "values": [{"compound": "N.N.[Cl][Pt][Cl]", "note": "[cisplatin] + OCc1c[nH]c2ccccc12 [Indole-3-carbinol] (first compound 1.6 µM, partner dose 0.8 µM)", "cleaved PARP positive nuclei fraction": 142}, {"compound": "NC1(c2ccc(-c3nc4ccn5c(=O)[nH]nc5c4cc3-c3ccccc3)cc2)CCC1", "note": "+ N.N.[Cl][Pt][Cl] [cisplatin] (first compound 0.4 µM, partner dose 1.6 µM)", "cleaved PARP positive nuclei fraction": 47.4}, {"compound": "Cc1cc(SCc2sc(-c3ccc(C(F)(F)F)c(F)c3)nc2C)ccc1OCC(=O)O", "note": "+ C/C(O)=C(\\C#N)C(=O)Nc1cc(Br)ccc1Br [LFM-A13] (first compound 2 µM, partner dose 2 µM)", "cleaved PARP positive nuclei fraction": 106}, {"compound": "N.N.[Cl][Pt][Cl]", "note": "[cisplatin] + CN1CCN(c2ccc3nc(-c4c(N)c5c(F)cccc5[nH]c4=O)[nH]c3c2)CC1 [Dovitinib] (first compound 1.6 µM, partner dose 0.1 µM)", "cleaved PARP positive nuclei fraction": 152}, {"compound": "CC1(C)NC(=O)N(c2ccc([N+](=O)[O-])c(C(F)(F)F)c2)C1=O", "note": "[nilutamide] + O=C(Oc1ccc([N+](=O)[O-])cc1)N1CCC(C(O)(c2ccc3c(c2)OCO3)c2ccc3c(c2)OCO3)CC1 [JZL184] (first compound 1 µM, partner dose 1 µM)", "cleaved PARP positive nuclei fraction": 27.4}, {"compound": "O=C(/C=C/c1cccnc1)NCCCCC1CCN(C(=O)c2ccccc2)CC1", "note": "+ N.N.[Cl][Pt][Cl] [cisplatin] (first compound 0.01 µM, partner dose 1.6 µM)", "cleaved PARP positive nuclei fraction": 43.1}, {"compound": "Cn1cc(C2=C(c3cn(C4CCN(Cc5ccccn5)CC4)c4ccccc34)C(=O)NC2=O)c2ccccc21", "note": "[Enzastaurin] + CC(C)CCN1c2nc(Nc3cc(F)c(O)c(F)c3)ncc2N(C)C(=O)C1C [BID1870] (first compound 0.8 µM, partner dose 0.2 µM)", "cleaved PARP positive nuclei fraction": 44}, {"compound": "Cn1cc(C2=C(c3cn(C4CCN(Cc5ccccn5)CC4)c4ccccc34)C(=O)NC2=O)c2ccccc21", "note": "[Enzastaurin] + O=C(Nc1cccc(Cl)c1)Nc1ncc(CCNc2ncnc3ccsc23)s1 [SNS314] (first compound 0.8 µM, partner dose 0.0008 µM)", "cleaved PARP positive nuclei fraction": 53.7}, {"compound": "Cc1cc(Nc2cc(N3CCN(C)CC3)nc(Sc3ccc(NC(=O)C4CC4)cc3)n2)n[nH]1", "note": "[Tozasertib] + C[As](C)SC[C@H](NC(=O)CC[C@H](N)C(=O)O)C(=O)NCC(=O)O [Darinaparsin] (first compound 0.006 µM, partner dose 0.4 µM)", "cleaved PARP positive nuclei fraction": 19.7}, {"compound": "C[C@]1(O)C[C@@H](c2nc(-c3ccc4ccc(-c5ccccc5)nc4c3)c3c(N)nccn32)C1", "note": "+ Cc1cc(SCc2sc(-c3ccc(C(F)(F)F)c(F)c3)nc2C)ccc1OCC(=O)O [GW0742] (first compound 0.4 µM, partner dose 2 µM)", "cleaved PARP positive nuclei fraction": 42.1}, {"compound": "C[As](C)SC[C@H](NC(=O)CC[C@H](N)C(=O)O)C(=O)NCC(=O)O", "note": "[Darinaparsin] + Oc1cc(-c2nc(-c3ccccc3)[nH]c2-c2ccncc2)ccc1Cl [L779450] (first compound 0.4 µM, partner dose 0.2 µM)", "cleaved PARP positive nuclei fraction": 137}, {"compound": "CC(=O)O[C@@]12CO[C@@H]1C[C@H](O)[C@@]1(C)C(=O)[C@H](O)C3=C(C)[C@@H](OC(=O)[C@H](O)[C@@H](NC(=O)OC(C)(C)C)c4ccccc4)C[C@@](O)([C@@H](OC(=O)c4ccccc4)[C@H]21)C3(C)C", "note": "[Docetaxel] + O=C(Oc1ccc([N+](=O)[O-])cc1)N1CCC(C(O)(c2ccc3c(c2)OCO3)c2ccc3c(c2)OCO3)CC1 [JZL184] (first compound 0.0001 µM, partner dose 1 µM)", "cleaved PARP positive nuclei fraction": 72.7}, {"compound": "C[C@]12O[C@H](C[C@]1(O)CO)n1c3ccccc3c3c4c(c5c6ccccc6n2c5c31)CNC4=O", "note": "[Lestaurtinib] + CS(=O)(=O)c1ccc(C(=O)Nc2ccc(Cl)c(-c3ccccn3)c2)c(Cl)c1 [vismodegib] (first compound 0.004 µM, partner dose 1 µM)", "cleaved PARP positive nuclei fraction": 131}, {"compound": "C[As](C)SC[C@H](NC(=O)CC[C@H](N)C(=O)O)C(=O)NCC(=O)O", "note": "[Darinaparsin] + COc1ccc2c(c1)CCC1C2CCC2(C)C(NCCCCCCN3C(=O)C=CC3=O)CCC12 [U73122] (first compound 0.4 µM, partner dose 0.4 µM)", "cleaved PARP positive nuclei fraction": 85.6}]}]}
